Data reported in patent US20080107654A1.
Numbering of substitutions follows the chain as printed. Results are given in words; binding and its absence hold for the method and conditions named. Some entries that bind do so weakly or less than the wild type. Each block holds one binder with its values, some of them ahead of it.

Protein sequences, listed by entry. Tags and fused reporters are not part of them. Residues count along the entry.
UniProt Q08722, residues 19-141: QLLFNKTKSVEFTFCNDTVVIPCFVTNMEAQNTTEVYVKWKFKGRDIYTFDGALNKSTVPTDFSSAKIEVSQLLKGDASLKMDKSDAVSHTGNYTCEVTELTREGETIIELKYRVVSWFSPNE

Biological target: soluble human CD47 (human) (UniProt Q08722)
Test: BIACORE, soluble human CD47 amine-coupled to CM5 chip, CHO culture supernatant injected

- binding: binds
B1: humanized MABL-2 HL5 SS44 (scFv)
scFv: QVQLVQSGAEVKKPGASVQVSCKASGYTFTNHVIHWLRQAPGQCLEWMGYIYPYNDGTKYNEKFKDRVTMTSDTSISTAYMELSSLRSDDTAVYYCARGGYYTYDDWGQATLVTVSSGGGGSDIVMTQSPLSLPVTPGEPASISCRSSQSLVHSNGKTYLHWYLQKPGQSPRLLIYKVSNRFSGVPDRFSGSGSGTDFTLKISRVEADDVGIYYCSQSTHVPYTFGCGTKLEIK

- binding: binds
B2: humanized MABL-2 HL5 SS105 (scFv)
scFv: B1 scFv with C44G, Q109C, S170C, C227Q
